From US11759509B2 (Sumitomo Pharma Co., Ltd., priority 2013, dated 2023)

Assay: general procedure: Fmoc solid-phase peptide synthesis; Fmoc-Leu-Alko-resin; HBTU/DIPEA
Conditions: whole synthesis, scale 0.2 mmol

Substance “H-Cys(Npys)-Arg-Met-Phe-Pro-Asn-Ala-Pro-Tyr-Leu-OH” has a crude mass of 217 mg and an isolated mass of 53 mg.
